Results reported in patent US20160046943, “Interferon Production Using Short RNA Duplexes” (YALE UNIVERSITY, published 2016).
Where a protein sequence is shown, tags need not be part of it.

Biological target: T1, RIG-I (full length, pUNO-RIG-I in 293T) (UniProt O95786)
T1 sequence (looked up): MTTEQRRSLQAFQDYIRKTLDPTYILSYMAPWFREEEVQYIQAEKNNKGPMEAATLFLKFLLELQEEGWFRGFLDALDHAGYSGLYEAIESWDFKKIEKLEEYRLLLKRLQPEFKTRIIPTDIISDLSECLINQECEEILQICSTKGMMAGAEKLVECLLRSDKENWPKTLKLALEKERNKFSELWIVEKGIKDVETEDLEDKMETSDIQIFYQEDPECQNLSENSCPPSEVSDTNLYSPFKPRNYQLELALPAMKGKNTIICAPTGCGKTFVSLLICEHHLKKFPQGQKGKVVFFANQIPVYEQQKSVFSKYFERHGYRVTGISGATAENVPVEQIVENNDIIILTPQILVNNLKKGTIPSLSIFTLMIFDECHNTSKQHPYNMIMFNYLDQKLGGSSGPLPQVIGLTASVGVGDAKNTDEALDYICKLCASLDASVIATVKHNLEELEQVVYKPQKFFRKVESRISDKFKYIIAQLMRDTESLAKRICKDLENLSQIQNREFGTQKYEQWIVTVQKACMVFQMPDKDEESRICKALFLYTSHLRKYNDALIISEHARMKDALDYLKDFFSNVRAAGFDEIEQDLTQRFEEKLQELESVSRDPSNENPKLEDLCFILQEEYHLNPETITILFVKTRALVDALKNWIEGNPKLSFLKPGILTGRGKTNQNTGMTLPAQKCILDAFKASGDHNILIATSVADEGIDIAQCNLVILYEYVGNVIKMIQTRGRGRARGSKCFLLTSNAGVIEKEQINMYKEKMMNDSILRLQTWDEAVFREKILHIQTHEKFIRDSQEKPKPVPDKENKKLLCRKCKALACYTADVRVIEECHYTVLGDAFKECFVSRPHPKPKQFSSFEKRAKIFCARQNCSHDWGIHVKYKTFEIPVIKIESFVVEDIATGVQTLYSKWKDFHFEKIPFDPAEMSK
Experiment: activity in cells
Details: 5'-triphosphate, IFN-beta luciferase reporter in 293T, protein in cells, protein details: pUNO-RIG-I expression plasmid

[1] = comparable to positive controls

Sequence | functional effect [1] | functional effect (positive control)
GGAUCGAUCGAUCGAUCGGCUUCGGCCGAUCGAUCGAUCGAUCC [5'ppp20L] | active | –
GGAUCGAUCGAUCGAUCGGCAUCGAUCGGCUUCGGCCGAUCGAUGCCGAUCGAUCGAUCGAUCC [5'ppp30L] | active | –
GGCGCGCGCGCGCGCGCGCGCC (double strand) [5'pppGC22] | – | active
